Some entries share one result that the patent states for a list of compounds. For at least one compound, name, drawing or mass did not settle the structure. Some compounds share one range, which may span the group rather than tell each member.
Columns and labels:
human fetal NSC (hf5205) = experiment: Immunocytochemistry for Vglut1 after 3 weeks differentiation; assay type: cell-based; settings: 2-step growth withdrawal, control 0-4.2%
Experimental: Antibodies included: Beta-III tubulin (1:100 MAB1637), GFAP (1:1000, DAKO), Vglut1 (1:1000, Synaptic system), GABA (1:1000, Sigma). Appropriate fluorescent-conjugated secondary antibodies were used at 1:500 for 1 h at room temperature. Coverslips were mounted with fluorescent mounting medium (DAKO) containing DAPI (1:1000) and cells were imaged using Leica microscope. Hit validation for differentation. All retests for differentiation were done by a two step growth withdrawal method (as described in Sun et al. Mol. Cell. Neurosci. 38(2008) 245-258) with and without the test compound for 8 days. […] Immunocytochemistry was performed for a series of antibodies marking different classes of neurons based on their neurotransmitters including glutamatergic, dopaminergic, cholinergic and serotonergic. […] Vglut1 is a vesicular glutamate transporter required for transport of glutamate into synaptic vesicles of glutamatergic neurons.

human fetal NSC = experiment: Hit validation for differentiation, two step growth withdrawal method, 8 days; assay type: cell-based; settings: L-741,742 3 μM, PNU96415E 15 μM, Ifenprodil tartrate 1.5 μM, McN A-343 4 μM, (−)-N-Phenylcarbamoyleseroline 6 μM, control 2-9%

Row | Compound | average Vglut1 positive staining (human fetal NSC (hf5205)) | neuronal differentiation (human fetal NSC)
1 | Cc1c(C2CCN(CCc3ccccc3)CC2)noc1-c1ccc(Cl)cc1 [L-741,742] | 30-40% | 12-40%
2 | Ifenprodil tartrate |  | 12-40%

Source: patent US20170327789A1, “Modulation of Dopamine Receptor to Promote Neural Cell Differentiation” (The Hospital for Sick Children, priority 2014, published 2017)
